Some of these results come from one statement about several compounds together. Some compounds share one range, which may span the group rather than tell each member.
Experiments:
Format in all cases: in vivo
Podosphaera leucotricha = experiment: Action against Podosphaera leucotricha/apple (powdery mildew on apple); details: apple seedlings cv. McIntosh, spray 0.02% active ingredient, inoculated one day after application, assessed after 12 days incubation
Puccinia recondita = experiment: Action against Puccinia recondita/wheat (brown rust on wheat); details: wheat plants cv. Arina, spray 0.02% active ingredient, inoculated one day after application, assessed 10 days after inoculation
Botrytis cinerea [1] = experiment: Action against Botrytis cinerea/Rape (Botrytis on Rapes); details: grape seedlings cv. Gutedel, spray 0.02% active ingredient, inoculated two days after application, assessed after 4 days incubation
Botrytis cinerea [2] = experiment: Action against Botrytis cinerea/tomato (Botrytis on tomatoes); details: tomato plants cv. Roter Gnom, spray 0.02% active ingredient, inoculated two days after application, assessed after 4 days incubation
Helminthosporium teres = experiment: Action against Helminthosporium teres/barley (net blotch on barley); details: barley plants cv. Regina, spray 0.02% active ingredient, inoculated two days after application, assessed after 4 days incubation
Alternaria solani = experiment: Action against Alternaria solani/tomato (early blight on tomatoes); details: tomato plants cv. Roter Gnom, spray 0.02% active ingredient, inoculated two days after application, assessed after 3 days incubation
Venturia inaequalis = experiment: Action against Venturia inaequalis/apple (scab on apple); details: apple seedlings cv. McIntosh, spray 0.02% active ingredient, inoculated one day after application, assessed after 4+4+4 days incubation
Erysiphe graminis = experiment: Action against Erysiphe graminis/barley (powdery mildew on barley); details: barley plants cv. Regina, spray 0.02% active ingredient, inoculated one day after application, assessed after 6 days incubation
Uncinula necator = experiment: Action against Uncinula necator/grape (powdery mildew on grapes); details: grape seedlings cv. Gutedel, spray 0.02% active ingredient, inoculated one day after application, assessed after 7 days incubation
Septoria nodorum = experiment: Action against Septoria nodorum/wheat (Septoria leaf spot on wheat); details: wheat plants cv. Arina, spray 0.02% active ingredient, inoculated one day after application, assessed 11 days after inoculation
Septoria tritici = experiment: Action against Septoria tritici/wheat (Septoria leaf spot on wheat); details: wheat plants cv. Riband, spray 0.2% active ingredient, inoculated one day after application, assessed 18 days after inoculation

Row | SMILES | infestation (Podosphaera leucotricha) | infestation (Puccinia recondita) | infestation (Botrytis cinerea [1]) | infestation (Botrytis cinerea [2]) | infestation (Helminthosporium teres) | infestation (Alternaria solani) | infestation (Venturia inaequalis) | infestation (Erysiphe graminis) | infestation (Uncinula necator) | infestation (Septoria nodorum) | disease incidence (Septoria tritici)
1 | COC(C)(C)C#Cc1ccc(-c2ccccc2NC(=O)c2cn(C)nc2C(F)(F)F)s1 [Compound 1ai.77] | 0-5% |  |  |  |  |  |  |  |  |  | 
2 | Cn1cc(C(=O)Nc2ccccc2-c2ccc(C#CC(C)(C)C)cn2)c(C(F)(F)F)n1 [Compound 1ab.098] |  | 0-5% | 0-5% | 0-5% | 0-5% | 0-5% |  |  |  |  | 
3 | Cn1cc(C(=O)Nc2ccccc2-c2ccc(C#CC(C)(C)C)nc2)c(C(F)F)n1 [Compound 1aa.099] |  | 0-5% | 0-5% | 0-5% | 0-5% | 0-5% | 0-5% | 0-5% | 0-5% |  | 
4 | CC(C)(C)C#Cc1cnn(-c2ccccc2NC(=O)c2cccnc2Cl)c1 [Compound 4dr.098] | 0-5% | 0-5% | 0-5% | 0-5% | 0-5% | 0-5% |  |  | 0-5% |  | 
5 | Cn1cc(C(=O)Nc2ccccc2-c2ccc(C#CC(C)(C)C)nc2)c(C(F)(F)F)n1 [Compound 1aa.098] |  | 0-5% | 0-5% | 0-5% | 0-5% | 0-5% |  |  |  |  | 
6 | Cn1cc(C(=O)Nc2ccccc2-c2ccc(C#CC(C)(C)F)s2)c(C(F)F)n1 [Compound 1ai.081] |  | 0-5% | 0-5% | 0-5% | 0-5% | 0-5% |  |  |  |  | 
7 | Cn1cc(C(=O)Nc2ccccc2-n2cc(C#CC(C)(C)C)cn2)c(C(F)F)n1 [Compound 1ar.099, 3-difluoromethyl-1-methyl-1H-pyrazole-4-carboxylic acid {2-[4-(3,3-dimethyl-but-1-ynyl)-pyrazol-1-yl]-phenyl}-amide] | 0-5% | 0-5% | 0-5% | 0-5% | 0-5% | 0-5% |  | 0-5% | 0-5% | 0-5% | < 20%
8 | COC(C)(C)C#Cc1ccc(-c2ccccc2NC(=O)c2cn(C)nc2C(F)F)s1 [Compound 1ai.078] |  | 0-5% | 0-5% | 0-5% | 0-5% | 0-5% | 0-5% | 0-5% | 0-5% | 0-5% | < 20%
9 | Cc1nc(C(F)(F)F)c(C(=O)Nc2ccccc2-n2cc(C#CC(C)(C)C)cn2)s1 [Compound 3cr.098] | 0-5% |  |  |  | 0-5% | 0-5% |  | 0-5% | 0-5% |  | 
10 | CC(C)(C)C#Cc1ccc(-c2ccccc2NC(=O)c2cccnc2Cl)s1 [Compound 4di.098] | 0-5% | 0-5% | 0-5% | 0-5% | 0-5% | 0-5% |  |  | 0-5% |  | 
11 | Cn1cc(C(=O)Nc2ccccc2-n2cc(C#CC(C)(C)C)cn2)c(C(F)(F)F)c1 [Compound 2br.098] | 0-5% |  |  |  | 0-5% | 0-5% |  | 0-5% | 0-5% |  | 
12 | Cn1cc(C(=O)Nc2ccccc2-c2ccc(C#CC(C)(C)C)s2)c(C(F)(F)F)n1 [Compound 1ai.098, 1-methyl-3-trifluoromethyl-1H-pyrazole-4-carboxylic acid {2-[5-(3,3-dimethyl-but-1-ynyl)-thiophen-2-yl]-phenyl}-amide] | 0-5% | 0-5% |  |  | 0-5% | 0-5% |  | 0-5% | 0-5% | 0-5% | < 20%
13 | Cn1cc(C(=O)Nc2ccccc2-c2ccc(C#CC(C)(C)C)s2)c(C(F)(F)F)c1 [Compound 2bi.098] |  |  |  |  | 0-5% |  |  |  |  |  | 
14 | Cc1nc(C(F)(F)F)c(C(=O)Nc2ccccc2-c2ccc(C#CC(C)(C)C)s2)s1 [Compound 3ci.098] | 0-5% | 0-5% | 0-5% | 0-5% | 0-5% | 0-5% | 0-5% |  | 0-5% |  | 
15 | Cn1cc(C(=O)Nc2ccccc2-c2ccc(C#CC(C)(C)C)s2)c(C(F)F)n1 [Compound 1ai.099] | 0-5% | 0-5% | 0-5% | 0-5% | 0-5% | 0-5% | 0-5% |  | 0-5% |  | < 20%
16 | Cn1cc(C(=O)Nc2ccccc2-c2ccc(C#CC(C)(C)C)cn2)c(C(F)F)n1 [Compound 1ab.099] | 0-5% | 0-5% | 0-5% | 0-5% | 0-5% | 0-5% |  | 0-5% |  |  | 

From US7553798B2, “Heterocyclic carboxamides with microbiocidal activity” (Syngenta Crop Protection, Inc., priority 2004, dated 2009)
